Assay results as given in publication PMC3338822.
These are yes or no findings as the source states them, for the method shown. Binding can be weak; no strength is given.

The chains behind the UniProt entries cited, without tags or fusion partners. Where a name states a change or a piece, a line headed by the entry shows the natural chain unless it says otherwise.
UniProt A7EKS0: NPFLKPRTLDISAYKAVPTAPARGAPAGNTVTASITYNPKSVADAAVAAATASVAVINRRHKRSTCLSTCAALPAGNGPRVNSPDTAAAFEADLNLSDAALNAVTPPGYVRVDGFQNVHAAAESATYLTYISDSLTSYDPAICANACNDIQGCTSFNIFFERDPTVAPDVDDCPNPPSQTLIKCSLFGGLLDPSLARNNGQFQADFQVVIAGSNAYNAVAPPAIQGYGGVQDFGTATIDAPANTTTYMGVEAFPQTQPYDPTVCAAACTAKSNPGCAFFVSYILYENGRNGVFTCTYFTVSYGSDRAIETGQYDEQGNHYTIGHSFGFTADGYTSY
UniProt A7EJM6: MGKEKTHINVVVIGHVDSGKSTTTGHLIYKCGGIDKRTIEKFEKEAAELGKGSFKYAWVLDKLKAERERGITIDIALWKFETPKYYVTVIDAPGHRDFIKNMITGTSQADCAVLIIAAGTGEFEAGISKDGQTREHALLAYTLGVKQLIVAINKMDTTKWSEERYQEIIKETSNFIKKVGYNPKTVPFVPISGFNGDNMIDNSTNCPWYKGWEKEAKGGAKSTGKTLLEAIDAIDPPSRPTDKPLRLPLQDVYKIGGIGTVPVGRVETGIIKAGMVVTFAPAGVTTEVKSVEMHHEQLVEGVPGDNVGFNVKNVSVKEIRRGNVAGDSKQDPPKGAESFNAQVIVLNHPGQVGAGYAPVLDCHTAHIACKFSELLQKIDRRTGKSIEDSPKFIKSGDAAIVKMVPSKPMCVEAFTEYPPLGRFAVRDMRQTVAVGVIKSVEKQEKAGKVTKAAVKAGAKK

Biological target: Ss-Sl2 amino acid 17-352 (without signal peptide), bait in pGBKT7 (Sclerotinia sclerotiorum) (UniProt A7EKS0)
Assay: two-hybrid; GAL4-based Matchmaker Gold system; Ss-Sl2 aa 17-352 in pGBKT7 as bait, full length cDNAs in pGADT7 as preys, co-transformed into Y2HGold; growth on SD/-Trp-Leu-His-Ade and the same with X-α-gal

binding: binds weakly
Substance: elongation factor 1-alpha, prey in pGADT7 (from UniProt A7EJM6)
